Changes are numbered by the printed parent chain. These are yes or no findings as the source states them, for the method shown. Some results given as binding are weak or reduced against the parent protein; the word gives no strength.
B1: HC 1251_A06/LC 1275_C10 (antibody, V domains shown)
VH: QVQLVESGGGVVQPGRSLRLSCAASGFDFSSYGMHWVRQAPDKGLEWVAVIWDDGSDRYYADSVKGRFTISRDNSKNTLYLQMNSLRAEDTAVYYCARGGTRVLGAIHGTDVWGQGTTVTVSS
VL: DIQMTQSPSSLSASVGDRVTITCRASQGVSSWLAWYQQKPEKAPKSLIYSARYLQSGVPSRFSGSGSGTDFTLTISSLQPEDFATYYCQQYNLYPLTFGGGTKVEIK
B2: HC 1251_B08/LC 1275_C10 (antibody, V domains shown)
VH: QVQLVESGGGVVQPGRSLRLSCAASGFNFSDYGMHWVRQAPDKGLEWVAVIWYDGSISYYADSVKGRFTISRDNSKNTLYLQMNSLRAEDTAVYYCARGGTVEHGAVYGTDVWGQGATVTVSS
VL: B1 VL
B3: HC 1251_B09/LC 1275_C10 (antibody, V domains shown)
VH: B2 VH with I51T, I57R, S58E, V102L, E103V, V107L, T110N, A117T
VL: B1 VL

Biological target: CD74 from cynomolgus monkey, stably expressed on CHO cells (cynomolgus monkey)
Assay: flow cytometry on CHO-cyno-CD74 cells, 100 nM antibody

binding	Binder
binds	B1
binds	B2
binds	B3
